Results: the supplement of paper PMC5949888
± gives the standard deviation of the averaged measurements. Most values lie at the floor of the assay. Slopes are relative: functional sequences can read slightly below zero.

tested on: Saccharomyces cerevisiae PS128 hsf1 delta, HSF1(1-493) fusion; assay: growth estimate (transactivation domain function in HSF1 fusion, heat-shock survival) (a.u. (slope of normalised read count over time)); higher = stronger growth at 37°C, i.e. more transactivation activity; conditions: library: random library

Substance | growth estimate
IWYY | < -0.25
IYETGVWQRPPATDPLKPSF | < -0.25
IYGGPISAYYSRGERGGSRQ | < -0.25
IYGVRVEST | < -0.25
IYIIQAGNFVGRRAGRARSS | < -0.25
IYQPACILCFDRNYTTGADL | < -0.25
IYYTQSDPQLPSTQGPR | < -0.25
KAGANAIYNPRMLSGASHDR | < -0.25
KAGKEDGRGPLFISSG | < -0.25
KAGKKTYMRILTTLDAFTR | -0.246
KALVSRQ | < -0.25
KANFRCEYLYRQGSHCHSSW | < -0.25
KAPMAPFK | < -0.25
KAQLIGAIHRVGNASPSASG | < -0.25
KASRTVGEERCAQTAIWNAP | < -0.25
KAVAFRFLF | < -0.25
KAVSDPNMALTVVMPSYGR | < -0.25
KAVVNSSLWATETRFPNPDV | < -0.25
KAVWTHISADLISTLRAPFT | < -0.25
KCCIGVRMP | -0.231
KCCPYNGGTRQFPLG | < -0.25
KCFTQPVVT | < -0.25
KCGSRDTRQHLAALAT | < -0.25
KCIIAG | < -0.25
KCIYE | < -0.25

Copied from the list:
In growth estimate, KAVSDPNMALTVVMPSYGR has < -0.25
In growth estimate, KCIIAG has < -0.25
In growth estimate, IYGGPISAYYSRGERGGSRQ has < -0.25
In growth estimate, KAQLIGAIHRVGNASPSASG has < -0.25

Reprinted at random: five entries already listed
Substance | growth estimate
KCFTQPVVT | < -0.25
KASRTVGEERCAQTAIWNAP | < -0.25
IYYTQSDPQLPSTQGPR | < -0.25
KAPMAPFK | < -0.25
IYGVRVEST | < -0.25

Following part

Substance | growth estimate
KCKRKDLSEAPLFPHSHSDF | < -0.25
KCLGRLLLRLIEWAHDVLLM | < -0.25
KCLH | < -0.25
KCNIKSPLETASYLPNGLLC | < -0.25
KCNTLTQFRP | < -0.25
KCPSV | < -0.25
KCRHFAACSLSVMKFTKILG | < -0.25
KCSIVSGRSVDLWWPYIG | < -0.25
KCWFLELALIPAGYSLGCAD | < -0.25
KDAILCRRQSWSGLAPSYTV | < -0.25
KDARITS | < -0.25
KDCTGRHSEKKKLTVAKDAW | < -0.25
KDCTKDLGGTRDFCKEASVF | < -0.25
KDFPRGGGGHTPCTLTSVGD | < -0.25
KDGVSVRGDSIVLVEMQ | -0.246
KDNG | < -0.25
KDRVASCI | < -0.25
KEDVSTNPFHSKDRRRSASH | < -0.25
KEEGDRLVGLLRRLAPTWRT | < -0.25
KEESI | < -0.25
KEHGYRQRS | < -0.25
KELGLRSVPT | < -0.25
KEMRI | < -0.25
KETQVWADLIGINCTRLHGS | < -0.25
KEWCTIIGLSIRQGRLV | < -0.25

Substance | growth estimate
KEWGTRDWT | < -0.25
KFALFYES | -0.25
KFLENLG | < -0.25
KFPQSD | < -0.25
KFRFAWVQGKQVRHRPPHAV | < -0.25
KFRIQQVRGFPASNIASPP | < -0.25
KFRITLG | < -0.25
KFRNIRYSRVCRCSRVRCTY | < -0.25
KFRPV | -0.18
KFRVVLLLLFDGLRKPRRSK | < -0.25
KFVAGLSNTVFSPPSLAVPS | < -0.25
KFVNKYRVMIH | < -0.25
KGECLITLFKS | < -0.25
KGFCIIST | < -0.25
KGGLSRVAISPRSNV | < -0.25
KGHAETVGRAVNGLN | < -0.25
KGHNHGEVCSTHTGVTPSRA | < -0.25
KGKVGWSFIARC | < -0.25
KGLEWAHAG | < -0.25
KGMYYFSVMPG | < -0.25
KGNSMDSIHDLVQL | < -0.25
KGPLESVKCRWSFKIPLSVA | < -0.25
KGPRSDIGAH | < -0.25
KGRAECGN | < -0.25
KGRWRWVCSTRIPCLRWVPW | < -0.25

Substance | growth estimate
KGS | < -0.25
KGSLRVIGIGWLRAGRMDVR | < -0.25
KGSRIKPAAFNLAWCKALGW | < -0.25
KGTSSGKQKYASELRTKSWP | < -0.25
KGTVLYIEATGRSWGCAVSA | < -0.25
KGVH | < -0.25
KGVPIRASRACAGA | < -0.25
KGVVNLVIIGEGGQVC | < -0.25
KGWEAEGVVCPFYRARF | < -0.25
KGYEVDTTKETGWLRDASAG | < -0.25
KHCSQ | < -0.25
KHSPFHS | < -0.25
KHTTVLDQLKLIKHASCKVG | < -0.25
KHVSASTASVRK | < -0.25
KIAIKDGKDIALSNGCYEGL | < -0.25
KIATRSGALRPFPRARQVSA | < -0.25
KICCNQSTLRWDSMVVIEAP | < -0.25
KIERCGKRHLGRTGQMSPNI | -0.112
KIERSI | < -0.25
KIFPYPSHVSDLICFGSVSP | -0.242
KIGFKVSHACTGGHLTPSV | < -0.25
KIIRHMTNLFYSSGSCMSEA | < -0.25
KIKEFLMASVNWISR | < -0.25
KIKSL | < -0.25
KIL | -0.237

Substance | growth estimate
KIRGTSCVIKPVCANPASPA | < -0.25
KISCHSLPPVSPGL | < -0.25
KISPLARRCTVLDERIGLGP | < -0.25
KISTRCRVDFCFNARCRSCL | < -0.25
KIVYALIGGDGLDERFQGSG | -0.246
KIYAWIAKKEVRDWAEVAPR | < -0.25
KKAGMHRGRSAG | < -0.25
KKAVHGGPRSVKSAIPVGRQ | < -0.25
KKFHRQWLRPGTRGREQLSC | < -0.25
KKGRECVRR | -0.243
KKMYDSTYCRVPSATRPYKT | < -0.25
KKN | < -0.25
KKRIETGTTVVFWQLIVGPW | -0.229
KKVDSMRWATLMRTLYETTR | < -0.25
KKWIR | < -0.25
KLAEAHNK | < -0.25
KLALVTIT | < -0.25
KLDLQEQRR | < -0.25
KLERFRPERSCFYILGSHHR | < -0.25
KLKIFCGNVIQIGTRAKVWA | < -0.25
KLL | -0.189 ± 0.087
KLLKGAWKDIDEARQSEARQ | < -0.25
KLLYCRRPWRTACVALVGWL | < -0.25
KLNCIVGFIVFHATNKSVSS | < -0.25
KLNMLCNRVIKLNPRS | < -0.25

Substance | growth estimate
KLNSRHKVYQSSESGRVQLL | < -0.25
KLNSTLQIPFNITWPWNTST | < -0.25
KLPETYLSGML | < -0.25
KLQGTNTVKNFTRRVSAVTK | < -0.25
KLRGVRHYDVYTVGGDPSRV | < -0.25
KLVCIFVCSWYVWMGIQAVL | < -0.25
KLWTKAYLG | < -0.25
KMDVGIFSPGHTHRPFGYTT | < -0.25
KMKGAE | < -0.25
KMPAFEVLPARLTGGVGFWP | < -0.25
KMPSPNP | < -0.25
KMQ | < -0.25
KMTIRY | < -0.25
KMYLLCRTTV | < -0.25
KNA | < -0.25
KNGPTTRDAEPLRG | < -0.25
KNHRHKVPQRS | 0.0413
KNHVACIPVCLLLLGDPDEA | < -0.25
KNKRGRVRLRSNSFFIMSSG | < -0.25
KNLIDRQFPPKGRAWGAI | < -0.25
KNLVLYTRWDCCDGNGLHVQ | < -0.25
KNPVVVSMVYDSCGQLEGRA | < -0.25
KNREGKWAIAE | < -0.25
KNRGILVGD | < -0.25
KNSASNVQGSDQSVGFTSLT | < -0.25

Substance | growth estimate
KNSSPSAP | < -0.25
KNTPRTTPVLLIRRPKSPPI | < -0.25
KNYSNK | < -0.25
KPCFSAACEVEPSSVVCYPV | < -0.25
KPDANELKMARKK | < -0.25
KPDCQARLKW | < -0.25
KPFRCWVHRPVGMRPKLI | < -0.25
KPGVQEQCTATFWMSMGRHM | < -0.25
KPGWYGAGG | < -0.25
KPIFGVPPPARRAYVRGYRL | < -0.25
KPLIRRLVRASAMGAVPMSG | < -0.25
KPLIWWFTVLPNKWIRCFLS | < -0.25
KPSARSTKIMWDANGEFRRS | < -0.25
KPSQ | < -0.25
KPSSGEELWVHMHASCRRPI | < -0.25
KPTCPVLL | < -0.25
KPTVWLQFLRICPVHSNDGW | < -0.25
KPVTPIH | < -0.25
KPY | < -0.25
KQAAR | < -0.25
KQAS | < -0.25
KQATGKGPKIMGSGGPAMTT | < -0.25
KQGDRYCGVWYGIWCYFFIG | < -0.25
KQK | < -0.25
KQKILNQRVSRSTGQLELLD | < -0.25

Substance | growth estimate
KQKWALYACRWAQALSVCTH | < -0.25
KQMDYEGSTTRMRTLRSVYV | < -0.25
KQRDNPTER | < -0.25
KQTTISNGGSAAHGKVKHCD | < -0.25
KRACSSCFQSKTPAAYCEGP | < -0.25
KRASVTGPQKGSLIIRNIDR | < -0.25
KRAYFI | 0.366
KRDRKPLPVGGRYPWDEVMD | < -0.25
KRFGNWTTS | < -0.25
KRFTHRLSPVRLQGRRKLPE | < -0.25
KRGGVPGGPYILT | < -0.25
KRGLRALLESASPFRC | < -0.25
KRIEV | < -0.25
KRIGEISEAV | < -0.25
KRKDPIVSERLLRR | < -0.25
KRLAGVAYASGSLSDTTIPG | < -0.25
KRM | < -0.25
KRPLFQLDFELRLSPIVRHG | < -0.25
KRQYSG | < -0.25
KRRCVMVDVMDGPYGDRTGA | < -0.25
KRREQ | < -0.25
KRRHLHPMLSHLFRKAA | < -0.25
KRRPGRYGRFGLPRLDGNTR | < -0.25
KRRS | < -0.25
KRRSFQIGPLSRKVFGVGPQ | < -0.25
